Measured values taken from PubChem BioAssay AID1794845 (National Center for Advancing Translational Sciences (NCATS), 2023).
The whole screen tested about 6,900 compounds, of which fewer than 10 were called active. Calls come from the whole dose curve; as a rule, active = well fitted curve in the direction sought with a large enough effect; inconclusive = small, poorly fitted or top-dose-only effect, or another doubt; inactive = no such curve, though single readings can be large or run the other way. Some of the results follow.

Sequences of proteins named here, by UniProt entry; tags and fusion partners are left off. A change or cut given only in a name is not applied to a line headed by its entry.
UniProt C7C422: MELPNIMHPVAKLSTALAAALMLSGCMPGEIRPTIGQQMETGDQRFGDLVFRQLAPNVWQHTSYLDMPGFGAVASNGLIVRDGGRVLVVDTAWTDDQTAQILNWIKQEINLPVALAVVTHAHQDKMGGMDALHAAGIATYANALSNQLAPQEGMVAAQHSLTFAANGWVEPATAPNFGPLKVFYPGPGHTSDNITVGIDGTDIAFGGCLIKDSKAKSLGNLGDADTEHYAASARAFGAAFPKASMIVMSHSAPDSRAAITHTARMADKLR

Molecular target: Metallo-beta-lactamase type 2 (Klebsiella pneumoniae) (UniProt C7C422)
Experiment: qHTS to identify inhibitors of the New Delhi Metallo-beta-lactamase (NDM): primary screen against the NCATS Gemini Collection; note: % of control where 0% means no effect
Details: NDM-1 enzyme, meropenem hydrolysis, absorbance 300 nm; at 38.4 µM (top of the series) unless noted
Outline: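 NDM-1 at 2 nM final in 50 mM HEPES pH 7.0, 1 uM ZnSO4, 0.01% Tween20, preincubated >30 min with compound. Meropenem 50 uM final added; absorbance at 300 nm after 30 min.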

Structure (SMILES) | activity % (negative = inhibition)
CCN1C(=O)CCc2cc(NC(=O)c3ccc(F)cc3)ccc21 | inactive: 10.2%
CN(C)[C@H]1CCN(C(=O)Cc2cn(C)c3ccccc23)C[C@H]1CCC(=O)O | inactive: 8.7%
O=C1NC2(CCN(C(=O)c3ccc4c(c3)OCO4)C2)Oc2ccccc21 (stereo not given) | inactive: 9.35%
Cc1cccc(C(=O)N2CCCC(c3nnnn3-c3ccccc3)C2)c1 (stereo not given) | inactive: 3.19%
CCC1CN(C(=O)c2ccc(NCc3cnn(CC)c3)nc2)CCN1C(C)C (stereo not given) | inactive: 1.35%
CO[C@H]1C[C@@H](O)C12CCN(C(=O)CCc1ccc(-c3cccs3)o1)CC2 | inactive: 12.1%
COc1cccc(CN2CCOC[C@H](Oc3ccc(C(F)(F)F)cn3)C2)c1 | inactive: -0.546% [at 57.5 µM]
Cc1cnc(CC2CCN(S(=O)(=O)c3ccc4c(c3)CCC4)CC2)n1CC1CC1 | inactive: 12.7%
O=C([C@@H]1C[C@H](F)CN1S(=O)(=O)Cc1ccccc1Cl)N1CCCCC1 | inactive: 1.06%
COc1cncc([C@@H](NC(=O)CCc2c(C)noc2C)C2CC(O)C2)c1 (stereo not given in full) | inactive: 3.81%
CNC(=O)c1ccc(CN2CC3(CCN(C(C)=O)CC3)CC2C(=O)O)o1 (stereo not given) | inactive: 40.2%
CCN(Cc1noc(C)n1)C(=O)c1coc(COc2ccc3c(c2)OCO3)n1 | inactive: 0.976%
O=C1N[C@H](CC(=O)N2CCN(Cc3ccccc3Cl)CC2)C(=O)Nc2ccccc21 | inactive: 0.0445%
COC(=O)N1CC(CN2C(=O)c3c(c(C)nn3-c3ccccc3)C2C)C1 (stereo not given) | inactive: 4.48%
CSCc1noc(Cn2nc(C)c3ccccc3c2=O)n1 | inactive: -1.17%
Cc1cnc(CCNS(=O)(=O)c2cccc(F)c2)n1Cc1ccccc1 | inactive: 12.9%
O=C1N(Cc2ccc(F)c(F)c2)CCCC12CCN(c1nc3ccccc3o1)C2 (stereo not given) | inactive: 0.978%
COc1ccc(CNC(=O)[C@@H]2CCC[C@@H](NC(=O)C3CC3)CN(C)C(=O)C2)cc1 | inactive: 0% [at 57.5 µM]
COc1cccc([C@@H]2CN(C(=O)c3cc(C)oc3C)C[C@H]2C(=O)O)c1OC | inactive: 1.74%
COc1ccc(-n2nc3n(c2=O)CCN(C(=O)c2ccccc2F)C3)cc1 | inactive: 14.8%
O=S(=O)(c1cccc(F)c1)N1CC[C@@H]2COCCN(Cc3ccccc3)[C@@H]2C1 | inactive: -0.511%
O=C(NCc1nnc2cc(-c3nc(C4CC4)no3)ccn12)C1(c2ccccc2)CC1 | inactive: 5.22%

Structure (SMILES) | activity % (negative = inhibition)
CCc1nc2c(c(-c3ccc(Cl)cc3)n1)CCN(Cc1ccnn1C)CC2 | inactive: 2.26%
C[S+](=O)([O-])N1CCC2(CC1)C(=O)NN=C2c1ccccn1 | inactive: 27.7% [at 57.5 µM]
CN1C[C@@H](NC(=O)CC(C)(C)CC(=O)O)C[C@H]1c1nc(-c2ccc3c(c2)OCO3)no1 | inactive: 16.1% [at 57.5 µM]
Cc1cc(=O)n(CC(=O)NCc2ccccc2Cl)c(N(C)Cc2ccccc2)n1 | inactive: 4.06%
C[S+](=O)([O-])N1CC2(Cc3ccccc31)CN(C(=O)NC1CCCC1)C2 | inactive: -2.88%
CN(C)C[C@H]1C[C@@H](CO)CN(C(=O)c2csc(Cc3ccccc3)n2)C1 | inactive: 6.51%
CCC(C)NC(=O)N1CC(c2nc(CCOCC3CCOCC3)no2)C1 (stereo not given) | inactive: 4.98%
COc1cccc(CC(=O)NCc2ccc(Cl)s2)c1 | inactive: -7%
CCNc1nccc(N2CCC(CC(=O)N3CCN(c4ccccc4F)CC3)CC2)n1 | inactive: 25.4%
CN(Cc1cccc(N2CCN(Cc3c(Cl)ccc(Cl)c3Cl)CC2)c1)[S+](C)(=O)[O-] | inactive: 17.3%
CCNC(=O)CN1CCC(=O)N(Cc2ccc(F)cc2)C(C(C)C)C1 (stereo not given) | inactive: 3.86%
O=C(Nc1nn(Cc2ccccc2)c2cccc(N3CCOCC3)c12)C1CCC1 | inactive: 43.7%
O=C(c1cccn2cncc12)N1CCOCC1 | inactive: 14% [at 57.5 µM]
COc1nc2nc(CC3CC3)n(C)c2cc1-c1ccc(O)c(F)c1 | inactive: 23.9% [at 57.5 µM]
NC(=O)[C@@H](Cc1c[nH]c2ccccc12)NC(=O)[C@H]1CN(C(=O)C2CCNCC2)CCN1C(=O)N1CCOCC1 | inactive: 39.9%
C[C@]1(CO)C2CC[C@@H](O)[C@@H](CC(=O)N3CCC[C@H]3CO)[C@]2(C)CC[C@H]1OC(=O)Nc1cccc(F)c1 (stereo not given in full) | inactive: -10.5%
COc1ccc(C(=O)N2CCN(c3cc(-c4cccs4)[nH]n3)CC2)cc1OC | inactive: 14.6%
COc1ccc(S(=O)(=O)NCCNc2cc(C)nc3ccnn23)cc1 | inactive: 14.3%
Cc1nc(-c2cn(C3CCCN(C(=O)c4cccc(Br)c4)C3)nn2)no1 (stereo not given) | inactive: 1.3%
Cc1c(-c2ccccc2F)[nH]c2ccc(CNC(=O)C3C=CCN3)cc12 (stereo not given) | inactive: 3.48%
c1cnc(-c2noc(-c3nc(-c4ccc5c(c4)OCO5)no3)n2)cn1 | inactive: 1.24%
Cc1ccc(-c2noc([C@@H]3Cc4nc[nH]c4CN3C(=O)NC3CCCCC3)n2)cc1 | inactive: 19.1% [at 57.5 µM]

Structure (SMILES) | activity % (negative = inhibition)
CCN1C(=O)Cc2cc(C(=O)Nc3ccc(F)cc3)ccc21 | inactive: 33.6%
c1cncc(CN2CC[C@H](c3nnc(Cc4c[nH]c5ccccc45)o3)C2)c1 | inactive: 4.49% [at 57.5 µM]
CCCOCC(=O)N1CCc2onc(-c3ccc(C(F)(F)F)cc3)c2C1 | inactive: 64.3%
CN(Cc1cccn1C)C(=O)C1CC1 | inactive: -2.19% [at 77.1 µM]
CN1CC(=O)N(c2cccnc2)Cc2c1ncnc2N1CCN(c2ncccn2)CC1 | inactive: 10.8%
CCOc1c(CN(C)C(=O)Cn2cccc(OC)c2=O)cccc1OC | inactive: 1.77%
CN1C[C@H](NC2CCC2)CCC[C@@H](C(=O)NC2CCOCC2)CC1=O | inactive: -6.09% [at 57.5 µM]
Cc1onc(C(=O)NCc2ccc3[nH]c(-c4ccc(F)cc4)c(C)c3c2)c1CO | inactive: 9.36%
Cn1cc(CN2CCCC(COc3ccccc3C(=O)N3CCCCC3)C2)c2ccccc21 (stereo not given) | inactive: 1.2%
CCc1ccccc1NC(=O)N1C[C@@H](F)C[C@H]1C(=O)N1CCc2ccccc2C1 | inactive: 0.167%
Cc1oc2c(c1C(=O)N1CCOCC1)CN(Cc1cccnc1)CC2 | inactive: -5.86%
O=C(NC1CCCCC1)N[C@H]1C[C@H]2C(=O)N3CCC[C@@H]3C(=O)N2C1 | inactive: 1.76% [at 57.5 µM]
CC(C)NC(=O)N(C1CCOCC1)C1CNC1 | inactive: 7.72%
Cn1c(CN2CCOCC2)nnc1C1CCCN(C(=O)c2cc[nH]c2)C1 (stereo not given) | inactive: 13.4%
COc1cccc2sc(NC(=O)c3ccc4c(c3)OCCN(C3CCC3)C4)nc12 | inactive: 14.2% [at 57.5 µM]
Cc1ccc(F)c(OC2(C(=O)O)CCN(Cc3cccc(C)n3)CC2)c1 | inactive: 2.82%
CN1CCN(Cc2ccc(-c3cnc4c(OCc5ccccc5)nccn34)cc2)CC1 | inactive: 0.216% [at 57.5 µM]
COC[C@H]1NC(=O)CC[C@H]1C(=O)NCCCc1ccccc1 | inactive: 14%
CCN1CC2(CCN(Cc3cc4c(cc3OC)OCCCO4)CC2)OC1=O | inactive: 1.78%
CN1CCCC(CN(C)C(=O)c2cc(-c3cnn(CCO)c3)nc3ccccc23)C1 (stereo not given) | inactive: 0.511%
Cc1ccc(CN2CCC3OCCN(Cc4ccccc4)C(=O)C3C2)o1 (stereo not given) | inactive: 2.35% [at 57.5 µM]
O=C(CC[C@H]1NC(=O)c2ccccc2NC1=O)Nc1nc(-c2cccnc2)cs1 | inactive: 60%

An excerpt of these results, as comma-separated lines:
Structure (SMILES),activity % (negative = inhibition)
Cc1onc(C(=O)NCc2ccc3[nH]c(-c4ccc(F)cc4)c(C)c3c2)c1CO,inactive: 9.36%
Cn1cc(CN2CCCC(COc3ccccc3C(=O)N3CCCCC3)C2)c2ccccc21 (stereo not given),inactive: 1.2%
CCc1ccccc1NC(=O)N1C[C@@H](F)C[C@H]1C(=O)N1CCc2ccccc2C1,inactive: 0.167%
Cc1oc2c(c1C(=O)N1CCOCC1)CN(Cc1cccnc1)CC2,inactive: -5.86%
O=C(NC1CCCCC1)N[C@H]1C[C@H]2C(=O)N3CCC[C@@H]3C(=O)N2C1,inactive: 1.76% [at 57.5 µM]

(next part)

Structure (SMILES) | activity % (negative = inhibition)
COCCC(=O)N1CC(c2nc(CCOc3cccc(C)c3)no2)C1 | inactive: -5.55%
O=C(NCc1ccc2c(c1)OCO2)C1NCCc2[nH]cnc21 (stereo not given) | inactive: 13%
O=C(c1cccs1)N1CCN2CCS(=O)(=O)N(C3CC3)C(=O)C2C1 (stereo not given) | inactive: 5.15%
Cc1noc(-c2ccncc2)c1C(=O)NCCCCc1ccccc1 | inactive: 0.418%
COc1ccc(C(=O)N2CCC(O)(CO)CC2)c(OC)c1OC | inactive: 47.8%
CCOc1cccc(CN(C)C(=O)CN2CC3(CCN(C)CC3)CC2=O)c1 | inactive: -1.71%
CN(Cc1cc(C2CC2)n[nH]1)c1cc(C2CC(N)C2)nc(N)n1 (stereo not given) | inactive: 14.8%
CC(C)(C)C(=O)N1CC[C@@H](CC(=O)O)[C@@H](CCN2CCC[C@H]2C(N)=O)C1 | inactive: 11.5% [at 57.5 µM]
Oc1ccc(NCCN2CCCC2)cc1 | inactive: 57.2% [at 77.1 µM]
COCCNC(=O)C1CC(c2ccccc2)CN(C(=O)NCc2ccccc2)C1 (stereo not given) | inactive: -6.59%
O=C(NCc1ccc(Cl)cc1)c1ccc2cc[nH]c2n1 | inactive: 25.8% [at 57.5 µM]
O=C(O)C1CN(C(=O)c2ccco2)CCN(C2CCOCC2)C1 (stereo not given) | inactive: 2.43%
COc1ccc(-c2nnc3n2CCN([S+](=O)([O-])c2c(C)noc2C)C3)cc1 | inactive: 38.4%
COc1ccc(C2=NOC3(CCN([S+](=O)([O-])c4cccc(C(F)(F)F)c4)C3)C2)cc1 (stereo not given) | inactive: 3.67%
C[C@@]1(O)CCN(Cc2ccc(Br)o2)C[C@H]1N1CCCC1 | inactive: 10.4%
COc1ccc2c(c1)C(COCc1ccc(C(=O)O)cc1)=CC(C)(C)CO2 | inactive: -1.52%
CC(C)Oc1ccc2c(NC(=O)CN3CCCC3=O)nn(Cc3ccccc3)c2c1 | inactive: 23.4%
COc1ccc(CN2CC[C@H](c3nc(C)no3)[C@H](NC(=O)C3CC3)C2)cc1 | inactive: -9.65%
O=C1COc2ccc(Nc3ccc(C(F)(F)F)cc3)nc2CN1 | inactive: 19.7% [at 57.5 µM]
